Weaker means in comparison with the reference protein, sequence or condition of that experiment. Tags and fusion partners may be left off the protein sequences shown. The exact form of at least one protein or probe is not confirmed.
Molecular target: T1, CtGEN1 (Chaetomium thermophilum) (UniProt G0RYN2)
T1 sequence (looked up): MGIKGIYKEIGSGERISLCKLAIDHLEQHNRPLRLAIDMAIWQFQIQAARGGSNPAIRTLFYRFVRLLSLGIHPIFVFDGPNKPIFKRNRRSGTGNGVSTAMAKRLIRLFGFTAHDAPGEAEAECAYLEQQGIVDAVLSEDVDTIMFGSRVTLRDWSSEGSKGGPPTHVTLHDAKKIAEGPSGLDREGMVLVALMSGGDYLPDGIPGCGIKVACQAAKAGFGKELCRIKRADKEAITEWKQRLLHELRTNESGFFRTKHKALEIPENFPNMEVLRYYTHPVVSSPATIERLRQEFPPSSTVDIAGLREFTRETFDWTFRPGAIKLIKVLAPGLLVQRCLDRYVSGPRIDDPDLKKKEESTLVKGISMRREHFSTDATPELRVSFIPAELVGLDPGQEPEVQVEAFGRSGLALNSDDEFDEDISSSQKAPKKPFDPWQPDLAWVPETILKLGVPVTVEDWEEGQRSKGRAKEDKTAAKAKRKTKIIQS
Assay: EMSA
Details: EMSA: equal volumes of DNA in 10 mM Tris pH 7.5, 0.1% BSA, 100 mM KCl or NaCl and CtGEN1 in 10 mM Tris pH 7.5, 100 mM NDSB-195, 0.1% BSA, 1 mM EDTA, 20 min, 20 C, recombinant protein, residues 1-487, protein details: C-terminal His6, label: 5'-32P, folded or branched DNA

[1] = NaCl, lower affinity than in K+

Sequence | binding result (KCl, weaker than 4H, tighter than nicked 3H) | binding result [1] | binding result (KCl, weaker than 4H and 3H)
CCTCGAGGGATCCGTCCTAGCAAGGACTCAACTGCAGTCTAGAACACATG / CATCTGTGAATTCAACCACCGCTCAACTCAACTGCAGTCTAGAACACATG / CATGTGTTCTAGACTGCAGTTGAGTCCTTGCTAGGACGGATCCCTCGAGG [three-way junction (3H)] | binds more weakly | binds more weakly | 
CCTCGAGGGATCCGTCCTAGCAAGGGGCTGCTACCGGAAGCTTACAGATG / CATGTGTTCTAGACTGCAGTTGAGTCCTTGCTAGGACGGATCCCTCGAGG / CATCTGTAAGCTTCCGGTAGCAGCC / ACTCAACTGCAGTCTAGAACACATG [nicked three-way junction] |  | binds more weakly | binds more weakly
